Experimental data as given in the supplement of paper PMC12823440, “Inhibitors supercharge kinase turnover through native proteolytic circuits” (Nature, 2025).
The list shows a part of the results. The calls rarely recur for the same compound in another form.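 Kinases were expressed as nanoluciferase fusions in K562 cells and luminescence was read every 4 h between 2 and 18 h as percent of control, DMSO set to 100% and a positive control to 0%. A time point counts as decreased when the signal drops significantly (2 sigma). The hit call is the authors' own, does not follow from the count of time points alone, and its rule is not shown.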

Chains of the proteins cited; added tags and fusions are not shown.
UniProt Q9Y463, whole entry, looked up: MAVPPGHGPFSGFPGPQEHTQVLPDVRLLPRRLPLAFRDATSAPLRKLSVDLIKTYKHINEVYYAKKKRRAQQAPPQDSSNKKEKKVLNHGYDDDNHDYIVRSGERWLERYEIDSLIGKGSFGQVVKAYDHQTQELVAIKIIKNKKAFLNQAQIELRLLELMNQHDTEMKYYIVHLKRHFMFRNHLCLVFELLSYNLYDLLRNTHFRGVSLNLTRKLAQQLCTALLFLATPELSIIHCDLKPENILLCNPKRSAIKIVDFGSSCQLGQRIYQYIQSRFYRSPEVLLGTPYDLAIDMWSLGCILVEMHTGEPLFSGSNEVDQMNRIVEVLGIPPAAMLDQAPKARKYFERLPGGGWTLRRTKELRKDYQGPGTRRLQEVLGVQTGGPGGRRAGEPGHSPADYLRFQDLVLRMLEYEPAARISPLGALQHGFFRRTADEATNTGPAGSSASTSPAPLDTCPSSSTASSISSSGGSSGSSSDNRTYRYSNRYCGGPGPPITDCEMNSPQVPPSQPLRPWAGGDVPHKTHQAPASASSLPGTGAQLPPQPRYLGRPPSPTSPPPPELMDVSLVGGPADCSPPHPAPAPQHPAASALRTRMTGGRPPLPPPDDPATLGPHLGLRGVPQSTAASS

The compounds below were run against DYRK1B (UniProt Q9Y463) (assay: number of time points (of 5) at which kinase-Nluc abundance scored as decreased, DMSO-normalised (count); higher = more persistent destabilization). Details: K562; 2-18 h.

SMILES | number of time points
Cc1[nH]c(/C=C2\C(=O)Nc3ccccc32)c(C)c1CCC(=O)O [(Z)-Orantinib] (10 µM) | 0
Cc1ccc(C(=O)Nc2ccc(Oc3cc4cnn(C)c4cc3-c3cn[nH]c3)c(F)c2)c(=O)n1-c1ccc(F)cc1 [Merestinib] (2.5 µM) | 0
NS(=O)(=O)c1ccc(-n2nc(C(F)(F)F)cc2-c2ccc(Cl)cc2)cc1 (10 µM) | 0
CN1CCN(c2cnc3c(C4CCN(C(=O)c5ccc(OC(F)(F)F)cc5N)CC4)ncnc3c2)CC1 (10 µM) | 0
COc1ccc2c(OCc3nnc4ccc(-c5ccccc5)nn34)ccnc2c1 (2 µM) | 0
NC(=O)c1ccc2[nH]ccc2c1 (10 µM) | 0
CNc1nc(Nc2ccc(C(=O)N3CCOCC3)cc2OC)nc2[nH]cc(Cl)c12 (2.5 µM) | 0
